Results from article PMC4318453.
No constants are given. Whether binding was seen depends on the method and setting. Binding seen in cells or lysates may run through a third protein. Some binding calls cover weakened binding; strength is not graded here.

Chains of the proteins cited; added tags and fusions are not shown.
UniProt P12004: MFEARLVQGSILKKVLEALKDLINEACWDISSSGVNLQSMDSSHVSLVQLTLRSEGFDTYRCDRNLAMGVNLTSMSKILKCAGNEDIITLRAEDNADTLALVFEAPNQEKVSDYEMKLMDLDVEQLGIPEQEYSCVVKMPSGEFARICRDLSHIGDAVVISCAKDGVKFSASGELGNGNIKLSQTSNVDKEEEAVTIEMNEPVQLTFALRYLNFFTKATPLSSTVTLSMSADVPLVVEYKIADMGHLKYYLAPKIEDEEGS

Experiments:
FLAG-tagged PCNA = FLAG-tagged PCNA (UniProt P12004); test: co-IP; lysates of transfected HEK293 cells (PBS + 0.1% Triton X100), immunoprecipitation with anti-PCNA antibodies and protein G-agarose, western blot
[1] = molecular target: endogenous PCNA of HEK293 cells (human (endogenous in HEK293)) (UniProt P12004); test: as above

B1: BKPyV agnoprotein expressed in HEK293 cells (protein, UniProt P03085 1-66)
chain: MVLRQLSRQASVKVGKTWTGTKKRAQRIFIFILELLLEFCRGEDSVDGKNKSTTALPAVKDSVKDS
Q: For B1, which binding (FLAG-tagged PCNA) is on record?
A: Its binding is “binds”.

Q: And the binding [1]?
A: Its binding is “binds”.
